Results: publication PMC12040169 (PLOS Biology, 2025)
Some of the results follow.

Each molecule was assayed on T1, CTL2-GFP (C. trachomatis L2/434/Bu, GFP-expressing). Conditions: bulk GFP, single well; 28.5 h, 10 µM; inhibitor.
T1 construct: L2/434/Bu, GFP-expressing
Parameters: species or system HeLa; Intracellular C. trachomatis growth in HeLa cells, bulk GFP fluorescence relative to DMSO

Row | SMILES | % of control remaining
1 | Cc1nn(C)c(Cl)c1CN1CCCC(CCC(=O)N2CCN(C)CC2)C1 (centres unmarked) [CBK307716] | 109.15%
2 | CN1CCN(c2cc(NCC(c3cccnc3)N(C)C)nc3ccnn23)CC1 (centres unmarked) [CBK037157] | 82.0644%
3 | Cn1cc(CN2CCCC(c3cccc(Cc4ccc(Cl)cc4)n3)C2)cn1 (centres unmarked) [CBK286242] | 105.267%
4 | C#CCNS(=O)(=O)c1cccc(C(=O)NC2CCOc3ccccc32)c1 (centres unmarked) [CBK305430] | 99.6839%
5 | Cc1cc(C(=O)CSc2nnc(-c3ccccc3F)n2CC(C)C)c(C)[nH]1 [CBK297877] | 154.605%
6 | CC(=O)Nc1ccc(-c2ccc(COC3CCN(C(=O)Cc4ccc(Cl)cc4)CC3)cc2)cc1 [CBK149218] | 104.385%
7 | N#Cc1c(-c2ccccc2)noc1C/C=N/O [CBK007357] | 100%
8 | O=C(CN1CCCC1=O)N1CCN(C(=O)c2ccc(Br)o2)CC1 [CBK034530] | 123.777%
9 | CCN(CC)C(=O)C1CCCN(C(=O)Nc2ccc3[nH]ccc3c2)C1 (centres unmarked) [CBK156133] | 126.435%
10 | CSCCN1CCN(c2nccnc2OCC2COc3ccccc3O2)CC1 (centres unmarked) [CBK082806T] | 104.937%
11 | O=C(O)c1cc(NS(=O)(=O)c2ccc([N+](=O)[O-])cc2)ccc1O [CBK296077] | 106.086%
12 | Cc1cc(C)nc(Nc2n[nH]c(-c3ccc(NC(=O)Nc4ccccc4)cc3)n2)n1 [CBK267076] | 150.688%
13 | CN1C(=S)SC(C)(N(O)C(=O)NC2CCCCC2)C1(C)C (centres unmarked) [CBK008916] | 94.7773%
14 | O=C(Nc1ccccc1)N1Cc2nc[nH]c2C[C@H]1c1nc(-c2ccccc2)no1 [CBK288997] | 101.634%
15 | O=C(CN1CCOCC1)N1CCN(C(=O)c2ccc(C(F)(F)F)cc2)C1 [CBK051555C] | 144.412%
16 | CCN(CC)C(=O)c1sc2ncccc2c1NS(=O)(=O)Cc1ccccc1[N+](=O)[O-] [CBK050022] | 129.574%
17 | CNC(=O)Cn1nc(C)c2cnn(-c3ccccc3)c2c1=O [CBK287669] | 127.813%
18 | Cc1cc(N2CCN(C(=O)CCc3ccsc3)CC2)nc(C(C)C)n1 [CBK305710] | 76.4616%
19 | CC1CCCN(CC(C)(C)NC(=O)c2cc(C(F)(F)F)nn2C)C1 (centres unmarked) [CBK281598] | 162.697%
20 | CCC(C(=O)Nc1sc2c(c1C(N)=O)CCCCCC2)c1ccccc1 (centres unmarked) [CBK265383] | 115.488%
21 | COc1ccccc1-c1nccnc1NCc1ccc(C(F)(F)F)cc1 [CBK036788] | 182.66%
22 | O=C(c1ccc(F)cc1)N1C[C@@H]2C[C@H](C1)c1ccc(-c3cncnc3)c(=O)n1C2 [CBK289185] | 134.839%
23 | Nn1c(S)nnc1Cn1nnc2ccccc21 [CBK268233] | 98.1431%
24 | Fc1ccc(CN2CCC(n3cnc4cccnc43)CC2)cc1 [CBK283580] | 130.882%
25 | Cc1ccc(-c2cc(-c3ccccc3O)nc(N/N=C/c3cccnc3)n2)cc1 [CBK262308] | 105.046%

Grouped by structure: the compounds so far with a CF3 group.
Row | SMILES | % of control remaining
15 | O=C(CN1CCOCC1)N1CCN(C(=O)c2ccc(C(F)(F)F)cc2)C1 [CBK051555C] | 144.412%
19 | CC1CCCN(CC(C)(C)NC(=O)c2cc(C(F)(F)F)nn2C)C1 (centres unmarked) [CBK281598] | 162.697%
21 | COc1ccccc1-c1nccnc1NCc1ccc(C(F)(F)F)cc1 [CBK036788] | 182.66%

Continuation.

Row | SMILES | % of control remaining
26 | CN1CCN(CCCNC(=O)N(C)C2CCN(C)C2)CC1 (centres unmarked) [CBK155993] | 106.196%
27 | COCc1ccc(CN2CCC3(CCc4ccccc4C(=O)N3)C2)o1 (centres unmarked) [CBK284651] | 94.475%
28 | Cc1cc(CNC(=O)N2CCN(CCc3ccccc3)CC2)no1 [CBK158898] | 116.049%
29 | CCCCOc1ccc(C(N)CC(=O)O)cc1 (centres unmarked) [CBK262915] | 113.273%
30 | COc1ccc(C2CCN(Cc3cccnc3)CC2)cc1 [CBK283564] | 127.585%
31 | CN(C)c1ccccc1C1(O)CN2CCC1CC2 (centres unmarked) [CBK022620] | 137.38%
32 | O=C(O)CC/C(=N\Nc1ccc([N+](=O)[O-])cc1)c1ccc(F)cc1 [CBK017075] | 85.5598%
33 | COc1ccc(OCCn2c(C(C)O)nc3ccccc32)cc1 (centres unmarked) [CBK269905] | 101.357%
34 | COc1ccc(-c2cc(C(=O)NCc3cccnc3)c3cc(Br)ccc3n2)cc1 [CBK293958] | 149.507%
35 | O=C(Nc1cccc(C(F)(F)F)c1)c1cnsn1 [CBK018923] | 121.228%
36 | COc1ccc(F)c(C2NC(=O)CCC2N)c1 (centres unmarked) [CBK282905] | 106.839%
37 | CC(=O)N1CCc2c([nH]c3ccc(Br)cc23)C12CCN(CCCC#N)CC2 [CBK039724] | 81.878%
38 | OCCN(Cc1cccnc1)Cc1cccn1-c1ccccc1F [CBK283019] | 114.353%
39 | CC(C)N1CCCC[C@H]2CN(C(=O)C3OCCc4ccccc43)C[C@H]21 (some centres unmarked) [CBK285511] | 89.6549%
40 | N[C@H]1CO[C@H]2[C@@H]1OC[C@@H]2n1cc(-c2ccccc2)nn1 [CBK289502] | 123.9%
41 | O=C(Oc1cccc2cnccc12)c1ccccc1 [CBK022889C] | 86.8653%
42 | Cc1ccc(Nc2cncc(-c3ccc(O)cc3)n2)cc1Cl [CBK107802] | 103.926%
43 | COc1ccccc1-c1cc(C(=O)NCCCN2CCOCC2)c2ccccc2n1 [CBK267780] | 142.34%
44 | Cc1n[nH]c(O)c1C(c1ccc(OC(=O)c2c(F)cccc2F)cc1)c1c(C)n[nH]c1O [CBK265136] | 150.012%
45 | O=C(Cc1c[nH]c2ccccc12)N1CCC2(CCCN(Cc3cc(=O)[nH]c(=O)[nH]3)C2)C1 (centres unmarked) [CBK132049] | 98.0426%
46 | CCCS(=O)(=O)N1CCC2(CCCN(Cc3cccc(F)c3F)C2=O)C1 (centres unmarked) [CBK306694] | 148.846%
47 | CN1CCCc2ccc(S(=O)(=O)Nc3nc4ncccn4n3)cc21 [CBK305226] | 127.957%
48 | O=C(Nc1ccc(OC(F)(F)F)cc1)c1nn(-c2ncccn2)c2ccccc12 [CBK048510] | 203.425%
49 | CN(C)CCNCc1ccc(-c2cccc(C(=O)O)c2)o1 [CBK287250] | 110.796%
50 | CC(C)n1ncc2c1NC(=O)CC2c1ccc2c(c1)n(C)c(=O)n2C (centres unmarked) [CBK287926] | 89.4968%
